Data from patent US20210163555A1.
Results are given in words; binding and its absence hold for the method and conditions named. Binding seen in cells or lysates may run through a third protein. Some results given as binding are weak or reduced against the parent protein; the word gives no strength.

Sequences of proteins named here, by UniProt entry; tags and fusion partners are left off. A change or cut given only in a name is not applied to a line headed by its entry. A line that says so, or that is headed by a name, gives the form on record, which may keep a tag or linker. Residues count along the entry.
UniProt O88653: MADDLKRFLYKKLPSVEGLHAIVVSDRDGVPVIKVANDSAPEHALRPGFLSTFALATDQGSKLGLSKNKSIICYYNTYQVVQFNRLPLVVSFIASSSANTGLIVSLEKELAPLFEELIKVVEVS
UniProt Q9JHS3: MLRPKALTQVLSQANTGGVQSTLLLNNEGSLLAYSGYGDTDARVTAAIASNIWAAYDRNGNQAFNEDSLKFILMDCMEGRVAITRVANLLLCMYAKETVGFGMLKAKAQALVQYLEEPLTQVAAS
UniProt Q80X95: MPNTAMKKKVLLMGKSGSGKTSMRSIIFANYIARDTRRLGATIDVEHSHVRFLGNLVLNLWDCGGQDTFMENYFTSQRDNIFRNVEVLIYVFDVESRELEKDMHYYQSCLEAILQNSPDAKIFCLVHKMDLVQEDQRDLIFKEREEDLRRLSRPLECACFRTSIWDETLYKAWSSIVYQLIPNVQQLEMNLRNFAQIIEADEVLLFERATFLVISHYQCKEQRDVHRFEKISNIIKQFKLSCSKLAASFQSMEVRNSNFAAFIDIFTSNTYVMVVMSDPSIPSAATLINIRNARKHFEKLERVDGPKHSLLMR
UniProt Q99K70, residues 2-398: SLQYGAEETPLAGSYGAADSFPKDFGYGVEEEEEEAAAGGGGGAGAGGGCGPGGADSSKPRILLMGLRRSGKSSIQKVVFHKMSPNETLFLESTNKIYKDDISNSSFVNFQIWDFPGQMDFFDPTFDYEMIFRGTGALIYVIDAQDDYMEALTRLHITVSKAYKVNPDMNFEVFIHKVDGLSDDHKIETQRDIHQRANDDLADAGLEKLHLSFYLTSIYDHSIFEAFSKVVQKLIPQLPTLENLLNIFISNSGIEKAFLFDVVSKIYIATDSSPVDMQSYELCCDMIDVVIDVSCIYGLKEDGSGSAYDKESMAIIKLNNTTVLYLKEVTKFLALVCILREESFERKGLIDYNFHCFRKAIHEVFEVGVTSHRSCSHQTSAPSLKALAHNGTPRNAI
UniProt Q9CQ22, residues 2-161: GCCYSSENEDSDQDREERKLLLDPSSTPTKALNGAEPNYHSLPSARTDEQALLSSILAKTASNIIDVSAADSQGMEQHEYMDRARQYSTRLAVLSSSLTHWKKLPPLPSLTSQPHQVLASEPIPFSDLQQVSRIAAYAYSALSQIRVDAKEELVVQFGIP
HA-tagged wild-type Ube3a (Q05086, residues 11-875): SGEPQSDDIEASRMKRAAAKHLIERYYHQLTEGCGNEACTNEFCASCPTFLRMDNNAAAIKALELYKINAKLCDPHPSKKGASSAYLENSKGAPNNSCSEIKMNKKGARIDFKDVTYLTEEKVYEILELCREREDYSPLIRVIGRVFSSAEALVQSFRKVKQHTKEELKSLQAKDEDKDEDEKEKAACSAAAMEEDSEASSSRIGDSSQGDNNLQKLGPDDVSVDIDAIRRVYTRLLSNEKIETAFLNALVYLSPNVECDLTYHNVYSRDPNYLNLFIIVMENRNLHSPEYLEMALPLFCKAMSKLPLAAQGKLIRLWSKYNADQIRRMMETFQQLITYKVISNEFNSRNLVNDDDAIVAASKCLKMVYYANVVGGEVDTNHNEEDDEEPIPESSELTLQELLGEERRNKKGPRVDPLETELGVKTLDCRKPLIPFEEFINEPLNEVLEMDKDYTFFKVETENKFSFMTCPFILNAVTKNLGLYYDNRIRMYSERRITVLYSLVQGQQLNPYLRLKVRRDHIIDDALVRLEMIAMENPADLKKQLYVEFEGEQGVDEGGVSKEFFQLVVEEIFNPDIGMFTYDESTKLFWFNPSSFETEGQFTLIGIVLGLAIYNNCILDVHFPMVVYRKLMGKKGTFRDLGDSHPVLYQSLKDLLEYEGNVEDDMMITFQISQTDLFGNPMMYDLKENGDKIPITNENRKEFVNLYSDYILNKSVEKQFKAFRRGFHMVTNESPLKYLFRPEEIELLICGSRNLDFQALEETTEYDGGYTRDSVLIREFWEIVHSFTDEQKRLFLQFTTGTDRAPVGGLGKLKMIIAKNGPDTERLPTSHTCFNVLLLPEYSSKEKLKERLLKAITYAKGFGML
HA-tagged Ube3a-C833A (Q05086, form named): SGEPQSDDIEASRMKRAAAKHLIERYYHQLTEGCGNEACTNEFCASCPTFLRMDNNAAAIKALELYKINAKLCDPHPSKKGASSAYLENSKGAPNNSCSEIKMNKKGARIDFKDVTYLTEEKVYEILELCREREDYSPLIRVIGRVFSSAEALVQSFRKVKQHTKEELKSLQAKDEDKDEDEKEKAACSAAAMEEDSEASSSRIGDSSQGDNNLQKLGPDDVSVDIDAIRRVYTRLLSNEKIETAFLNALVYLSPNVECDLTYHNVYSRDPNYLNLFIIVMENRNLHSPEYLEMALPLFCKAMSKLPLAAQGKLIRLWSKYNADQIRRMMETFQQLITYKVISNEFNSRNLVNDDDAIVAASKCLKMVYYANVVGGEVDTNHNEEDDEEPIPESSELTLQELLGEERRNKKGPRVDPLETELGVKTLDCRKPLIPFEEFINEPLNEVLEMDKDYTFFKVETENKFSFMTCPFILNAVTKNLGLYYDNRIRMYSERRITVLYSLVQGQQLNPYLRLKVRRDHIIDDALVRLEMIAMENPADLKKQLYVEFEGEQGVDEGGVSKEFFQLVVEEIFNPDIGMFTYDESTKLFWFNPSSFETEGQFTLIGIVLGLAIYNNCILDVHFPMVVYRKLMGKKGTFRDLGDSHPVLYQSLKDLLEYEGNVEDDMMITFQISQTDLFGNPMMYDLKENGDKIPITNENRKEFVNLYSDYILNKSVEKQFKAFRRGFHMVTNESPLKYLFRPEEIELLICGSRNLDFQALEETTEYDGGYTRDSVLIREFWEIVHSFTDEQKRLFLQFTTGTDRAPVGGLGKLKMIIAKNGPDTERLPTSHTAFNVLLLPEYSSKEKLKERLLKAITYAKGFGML
UniProt Q5R766: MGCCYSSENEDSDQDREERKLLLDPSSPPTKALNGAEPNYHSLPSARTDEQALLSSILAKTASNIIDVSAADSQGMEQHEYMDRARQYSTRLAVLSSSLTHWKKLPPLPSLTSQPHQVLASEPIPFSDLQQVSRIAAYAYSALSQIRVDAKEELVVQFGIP

Tests used:
[1] = target: MP1 (endogenous, mouse) (mouse) (UniProt O88653); test: co-immunoprecipitation with anti-p18, lysates of cultured hippocampal neurons (FIG. 2)
[2] = target: p14 (endogenous, mouse) (mouse) (UniProt Q9JHS3); test: as above
[3] = target: RagA (endogenous, mouse hippocampus) (mouse) (UniProt Q80X95); test: co-immunoprecipitation with anti-RagA, hippocampal homogenates of WT and AS mice
[4] = target: RagA (endogenous, mouse hippocampus) (mouse) (UniProt Q80X95); test: co-immunoprecipitation with anti-RagA, hippocampal homogenates of WT and AS mice (FIG. 4G)
[5] = target: T1, Ube3a (endogenous, mouse hippocampal neurons) (mouse) (UniProt O08759); test: co-immunoprecipitation with anti-p18, cultured hippocampal neurons (FIG. 3B)
T1 sequence (looked up): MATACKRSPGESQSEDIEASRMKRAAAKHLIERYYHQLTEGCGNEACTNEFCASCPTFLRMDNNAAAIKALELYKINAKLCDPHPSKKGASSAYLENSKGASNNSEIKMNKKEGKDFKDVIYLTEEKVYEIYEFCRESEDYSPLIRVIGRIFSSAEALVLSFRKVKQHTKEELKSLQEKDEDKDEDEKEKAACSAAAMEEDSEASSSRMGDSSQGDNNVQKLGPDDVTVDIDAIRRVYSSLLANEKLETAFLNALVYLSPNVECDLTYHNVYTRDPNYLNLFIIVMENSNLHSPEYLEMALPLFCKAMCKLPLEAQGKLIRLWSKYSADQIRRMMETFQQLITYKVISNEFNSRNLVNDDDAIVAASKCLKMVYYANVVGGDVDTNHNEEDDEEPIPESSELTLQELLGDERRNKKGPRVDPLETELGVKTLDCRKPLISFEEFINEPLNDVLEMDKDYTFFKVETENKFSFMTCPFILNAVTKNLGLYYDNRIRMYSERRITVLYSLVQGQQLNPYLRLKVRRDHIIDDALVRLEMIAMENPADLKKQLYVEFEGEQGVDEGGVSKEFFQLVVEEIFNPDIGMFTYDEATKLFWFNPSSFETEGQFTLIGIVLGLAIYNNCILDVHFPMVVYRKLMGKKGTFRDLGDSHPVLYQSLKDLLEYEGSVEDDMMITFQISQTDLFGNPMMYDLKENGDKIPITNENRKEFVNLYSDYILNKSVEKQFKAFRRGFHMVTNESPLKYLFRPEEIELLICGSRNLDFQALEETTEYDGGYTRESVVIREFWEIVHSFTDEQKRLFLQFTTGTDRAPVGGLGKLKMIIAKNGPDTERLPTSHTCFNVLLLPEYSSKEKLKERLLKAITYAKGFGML

[6] = target: MP1 (endogenous, mouse) (mouse) (UniProt O88653); test: co-immunoprecipitation with anti-p18, lysates of cultured hippocampal neurons
[7] = target: p14 (endogenous, mouse) (mouse) (UniProt Q9JHS3); test: as above
[8] = target: T1, Ube3a (endogenous, mouse hippocampal neurons) (mouse); test: co-immunoprecipitation with anti-p18, cultured hippocampal neurons
[9] = target: RagC (endogenous, mouse hippocampus) (mouse) (UniProt Q99K70); test: co-immunoprecipitation with anti-RagA, lysates from mouse hippocampi (FIG. 2)
[10] = target: p18 (endogenous, mouse hippocampal neurons / hippocampus) (mouse) (UniProt Q9CQ22); test: as above
[11] = target: RagC (endogenous, mouse hippocampus) (mouse) (UniProt Q99K70); test: co-immunoprecipitation with anti-RagA, mouse hippocampal lysates
[12] = target: p18 (endogenous, mouse hippocampal neurons / hippocampus) (mouse) (UniProt Q9CQ22); test: as above
[13] = target: HA-tagged wild-type Ube3a (UniProt Q05086); test: co-immunoprecipitation with anti-Flag, transfected COS-1 cells (FIG. 1C)
[14] = target: HA-tagged wild-type Ube3a (UniProt Q05086); test: co-immunoprecipitation with anti-Flag, COS-1 cells transfected with Ube3a and Flag-p18
HA-tagged Ube3a-C833A = HA-tagged Ube3a-C833A (UniProt Q05086); test: co-immunoprecipitation with anti-Flag, transfected COS-1 cells

Measured: binding

p18 (endogenous, mouse hippocampal neurons / hippocampus) (from UniProt Q9CQ22 2-161)
binds: [1] | [2] | [3] | [4] | [5] | [6] | [7] | [8]

RagA (endogenous, mouse hippocampus) (from UniProt Q80X95 1-313) (enzyme)
binds: [9] | [10] | [11] | [12]

Flag-p18 (from UniProt Q5R766 1-161)
binds: [13] | [14] | HA-tagged Ube3a-C833A
